Laboratory results published in publication PMC7819943, “Rice protein-binding microarrays: a tool to detect cis-acting elements near promoter regions in rice”.
The list shows a part of the results.

Sequences of proteins named here, by UniProt entry; tags and fusion partners are left off.
UniProt Q0JBA9, entry or part of it: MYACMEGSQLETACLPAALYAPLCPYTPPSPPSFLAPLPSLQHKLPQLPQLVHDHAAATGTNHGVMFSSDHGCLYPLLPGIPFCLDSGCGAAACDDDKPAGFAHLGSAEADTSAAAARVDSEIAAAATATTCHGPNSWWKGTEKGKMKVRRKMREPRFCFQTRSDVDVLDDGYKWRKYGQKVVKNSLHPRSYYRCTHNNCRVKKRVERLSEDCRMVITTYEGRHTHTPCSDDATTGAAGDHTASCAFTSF

The sequences below were run against OsWRKY34 (Oryza sativa, UniProt Q0JBA9 1-250) (assay: protein-binding microarray (RPBM); PBS, 2% BSA, 51.3 ng/ul salmon testes DNA, 50 uM zinc acetate, 200 nM TF, 25 C, 1 h; high values mean tight binding). Details: protein: recombinant; tags: N-terminal polyhistidine and DsRed monomer fusion (pET32a); label: CyDye5-dUTP incorporated in the synthesized complementary strand; 3' TTTTT single-stranded linker to array surface; dsDNA, one strand shown.
Method in brief: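 An Axon 4000B scanner gave the binding signal as per-feature fluorescence intensity in arbitrary units. This followed washing of a custom Agilent array that had been incubated for 1 h at 25 °C with 200 nM protein in PBS, 2% BSA, salmon testes DNA and 50 µM zinc acetate. The proteins were transcription factors fused at the N-terminus to polyhistidine and DsRed, expressed in E. coli BL21-CodonPlus and purified on Ni–NTA.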

Sequence	binding signal
ATCCTTGCCCTGCTATCATTGGTTCCTCGTATAAAGTTCACGGAGTCACCTAGTGCAG	11100 fluorescence intensity (a.u.)
GGTCTTTCTGTTCCGTATGGACCGCTTGTGTATTCTGTCACGGAGTCACCTAGTGCAG	12000 fluorescence intensity (a.u.)
CCTGCATCATTGGGAGCTCTCTCTCCTTCCCTTCTTTTCTCGGAGTCACCTAGTGCAG	8220 fluorescence intensity (a.u.)
CCGCACAATCCGCGCCGCCATCAGTTCGCTCTCGCCACCACGGAGTCACCTAGTGCAG	9020 fluorescence intensity (a.u.)
CTCATTCCTTTGATAAAAATAATGTGTGTTTTTTCTGCTACGGAGTCACCTAGTGCAG	8590 fluorescence intensity (a.u.)
TCCACGTGAAGACGACCTCGACACATGCCCAATATTTCCACGGAGTCACCTAGTGCAG	8940 fluorescence intensity (a.u.)
GTCTCGCTCACGCAGTCACCCGCACGCGTGGCGCCCACTCCGGAGTCACCTAGTGCAG	8350 fluorescence intensity (a.u.)
GTTTCACCGGGCAACAAGGATGTTTGCCCGTGCAGTTTGACGGAGTCACCTAGTGCAG	8100 fluorescence intensity (a.u.)
TTGTTTTTTTTTCGTCTGCTTTACCAACACAGGCCATGGTCGGAGTCACCTAGTGCAG	8050 fluorescence intensity (a.u.)
TGTTCTCAAATCGATCTCTGTCTCCGGCTCCACTTCGGTCCGGAGTCACCTAGTGCAG	8660 fluorescence intensity (a.u.)
GTCTTATTGTGGTTGGGAGTTTAACGGTGTACCGAAGAAACGGAGTCACCTAGTGCAG	8780 fluorescence intensity (a.u.)
CATTGCTGACCCAAGAGACCGTCTCATATGCTTCATTTCTCGGAGTCACCTAGTGCAG	10300 fluorescence intensity (a.u.)
AAGAACATTGTGACATTGGATTTCTTTTCTTCTTTTTTTTCGGAGTCACCTAGTGCAG	8760 fluorescence intensity (a.u.)
CCTCTCATCGTATTCATGCTTTCTCCTGTCATTCTGTCGACGGAGTCACCTAGTGCAG	8570 fluorescence intensity (a.u.)
ATAACTGCTCACCGAGGTAAATCTCTAGTTCCAGACATTTCGGAGTCACCTAGTGCAG	9770 fluorescence intensity (a.u.)
AAGAATACTTCAGTTTGGATAAGCACGTAATGACCAAATCCGGAGTCACCTAGTGCAG	8330 fluorescence intensity (a.u.)
GCCTGATGCTGGTTTCTACAAAATATTGATGTTTTTCATGCGGAGTCACCTAGTGCAG	8580 fluorescence intensity (a.u.)
TGTCTTATTCTTGTCGATGTTAGAGTTTTTTTTTAACAGTCGGAGTCACCTAGTGCAG	8140 fluorescence intensity (a.u.)
TGTGGTTCAGTAATTGGTAATGGTATGTCTAGAGAAAATACGGAGTCACCTAGTGCAG	9430 fluorescence intensity (a.u.)
AAATTTCGGGGTGGGATCTAAACATAGCCTAAAAACAGAACGGAGTCACCTAGTGCAG	11500 fluorescence intensity (a.u.)
CACACATGTACAAATTTTACGCTGGATTTTATTTTCTGTTCGGAGTCACCTAGTGCAG	8620 fluorescence intensity (a.u.)

Sequence	binding signal
CTCGCTCTCGCCGCCGCTCGGAAGCGGTCGCCGGCGTCATCGGAGTCACCTAGTGCAG	9100 fluorescence intensity (a.u.)
TTGGTCAACTGTAACATTTGACCATCCGATTTTTTTTAGACGGAGTCACCTAGTGCAG	8390 fluorescence intensity (a.u.)
ATCTTTTCTCTTCTCGACTTCTCGTATGCCGCGTCCCGTCCGGAGTCACCTAGTGCAG	11100 fluorescence intensity (a.u.)
CCTGTATATATGCTCGCATTGTGTCCAACCTTTCGCATCACGGAGTCACCTAGTGCAG	9560 fluorescence intensity (a.u.)
AAACGGGCTGACTCATCATCACTCATCCAATTCCCATCCCCGGAGTCACCTAGTGCAG	8760 fluorescence intensity (a.u.)
CTTGGTTGTTTAATTTGTTTGTTTGCTTTAGCTCTGCTCCCGGAGTCACCTAGTGCAG	8310 fluorescence intensity (a.u.)
GCAGAGAAACGAAGGGTTGACTTTTGGACAGTTCATACACCGGAGTCACCTAGTGCAG	11400 fluorescence intensity (a.u.)
CTCATTGCATCCCAGTTAGGTCTTCATCACACATGACACACGGAGTCACCTAGTGCAG	10500 fluorescence intensity (a.u.)
GGTAGTCTAGGCCCAACTTCTCCGACGCTCCGAAACAGCCCGGAGTCACCTAGTGCAG	8710 fluorescence intensity (a.u.)
CTTACGAAAAATCCCAGTAGGACACATCACGCCCGTTTCCCGGAGTCACCTAGTGCAG	8730 fluorescence intensity (a.u.)
ATGACTCATTTTCTGCGCGCACGCTTCACAAATTACTAAACGGAGTCACCTAGTGCAG	8780 fluorescence intensity (a.u.)
TTTATGTAATGCCTTAAGATCACACATTGACTTATTTTTGCGGAGTCACCTAGTGCAG	8050 fluorescence intensity (a.u.)
TCTACGCCGCCGGCGGCGGCGGCGGCGGCAACTGCGGCGCCGGAGTCACCTAGTGCAG	47800 fluorescence intensity (a.u.)
GTCCCCACTACTGCTCATCATTCCATCGATTATTCTTGCCCGGAGTCACCTAGTGCAG	15100 fluorescence intensity (a.u.)
GTCCGGCGGTTCGCTGATCCACTCTCTCGTTTTTTTGTTTCGGAGTCACCTAGTGCAG	9640 fluorescence intensity (a.u.)
TGCTAAACCTGTGGTGTTAAATCTGGCTGGTTGCCTGTCTCGGAGTCACCTAGTGCAG	9280 fluorescence intensity (a.u.)
GTCGAGGAATCATTTCACCTCTGCCTCTTGTCAGCTTCGCCGGAGTCACCTAGTGCAG	11000 fluorescence intensity (a.u.)
GCGTTGGTGGCTTCTCGGTGATGTTTTTATTTTTCTTCCCCGGAGTCACCTAGTGCAG	11800 fluorescence intensity (a.u.)
GGGTAGTTGTTGGCCAAGTAGGCTGGCGTCCGCGCTTTTCCGGAGTCACCTAGTGCAG	8780 fluorescence intensity (a.u.)
GCTGTCCTTGCCTGGAGCTCGAGCTCTGAGCTACAGCTGCCGGAGTCACCTAGTGCAG	9120 fluorescence intensity (a.u.)
GTCCTCCTTCGCCGCTTACCACGCCGCCTCTATCTCCGCCCGGAGTCACCTAGTGCAG	10400 fluorescence intensity (a.u.)

Sequence	binding signal
CGTCTCGTCTCTGTCTCTCGGCCCACCGCTTCCATCGTTCCGGAGTCACCTAGTGCAG	14900 fluorescence intensity (a.u.)
TTCAACTTTGATTTATGCAATATTCACCGTTTATCCTAGACGGAGTCACCTAGTGCAG	8970 fluorescence intensity (a.u.)
TCATATATGAGTTTGTGGGTGTGGGTGTTTGCGAGCTTTTCGGAGTCACCTAGTGCAG	30700 fluorescence intensity (a.u.)
AAGCCGCCATCACCACCAGTGCCGTGATCATCATACACAGCGGAGTCACCTAGTGCAG	9580 fluorescence intensity (a.u.)
CCGATTCCAAATGTTCTCATCCTTATTCTTATCGACTTTTCGGAGTCACCTAGTGCAG	8940 fluorescence intensity (a.u.)
GCCCCAGCTTATCTGTCCACCTCACTCAGTCTCATCCCCACGGAGTCACCTAGTGCAG	8440 fluorescence intensity (a.u.)
AGTCCTATTTCCACTGTTTATATGAAAAAAAAGCTACTTCCGGAGTCACCTAGTGCAG	8430 fluorescence intensity (a.u.)
CGTTTGTCTCGCCATCTCTTAATTCCTTACGTTGACCATTCGGAGTCACCTAGTGCAG	14500 fluorescence intensity (a.u.)
GGTTGGTAGAGATAATTAGTACAGATCCTTCTCTTTTTCTCGGAGTCACCTAGTGCAG	13300 fluorescence intensity (a.u.)
TTGTCCGTCCTCACATCACCTTGCCGCCCTCGGGATCTACCGGAGTCACCTAGTGCAG	10500 fluorescence intensity (a.u.)
ATCTATTATTCCGCACTCTAGCGCTACCGTAAACATTTCTCGGAGTCACCTAGTGCAG	10800 fluorescence intensity (a.u.)
TGAACTGTACTATTAAACTTTCTCTTATGTATTGGGCTGTCGGAGTCACCTAGTGCAG	9360 fluorescence intensity (a.u.)
TCCCATCTTCGGTGACATCCTGTCTTTGCTTCTTAACTATCGGAGTCACCTAGTGCAG	10900 fluorescence intensity (a.u.)
TGGTTCTTTGTGTTATTCTCCTGTTGCCTGCCCCGAACAACGGAGTCACCTAGTGCAG	11200 fluorescence intensity (a.u.)
GACTTAGGGTGTGTTTGGTTCGTGGTCAAGGCTGGATAGGCGGAGTCACCTAGTGCAG	10500 fluorescence intensity (a.u.)
CGGCGTGGGAGGGGTCGATGGGGCGCTTGGCGGCGGCGGCCGGAGTCACCTAGTGCAG	9660 fluorescence intensity (a.u.)
TATTAATTCCAACAGCCATGCTTTATAATATCTCATCTCTCGGAGTCACCTAGTGCAG	8710 fluorescence intensity (a.u.)
ATCTCTCATGCTGTCATGCTTGTGGTGCACCTAGCAATTCCGGAGTCACCTAGTGCAG	11700 fluorescence intensity (a.u.)
GCTATATGCAATGCTTGTTTCCATGGTTCTTCTAGGTACACGGAGTCACCTAGTGCAG	10700 fluorescence intensity (a.u.)
AGGTGAGAGGAGGAGAGAGACGGGTTTAGGGCTTTAGGAGCGGAGTCACCTAGTGCAG	8040 fluorescence intensity (a.u.)
TTTTAACAATGCCGTTGTATTTTGGTTTGGTTGTGAGAATCGGAGTCACCTAGTGCAG	8980 fluorescence intensity (a.u.)

In a second layout: results already given
Sequence,binding signal
CGTTTGTCTCGCCATCTCTTAATTCCTTACGTTGACCATTCGGAGTCACCTAGTGCAG,14500 fluorescence intensity (a.u.)
GGTTGGTAGAGATAATTAGTACAGATCCTTCTCTTTTTCTCGGAGTCACCTAGTGCAG,13300 fluorescence intensity (a.u.)
TTGTCCGTCCTCACATCACCTTGCCGCCCTCGGGATCTACCGGAGTCACCTAGTGCAG,10500 fluorescence intensity (a.u.)
ATCTATTATTCCGCACTCTAGCGCTACCGTAAACATTTCTCGGAGTCACCTAGTGCAG,10800 fluorescence intensity (a.u.)

The list goes on.

Sequence	binding signal
TCTGTAGTACTCCACATCATACGCTGGCTGGACGTCATTACGGAGTCACCTAGTGCAG	8030 fluorescence intensity (a.u.)
TCAATCAACATCATTATATTAATCCATATTTACCCTATTTCGGAGTCACCTAGTGCAG	8160 fluorescence intensity (a.u.)
ACACCCGGCTGCTACCGCACCTTTATTTACAGCTCCTCCTCGGAGTCACCTAGTGCAG	8800 fluorescence intensity (a.u.)
GAATTTATCCATGGTATGCGTCTACTAAGTGGTGATTCCTCGGAGTCACCTAGTGCAG	8050 fluorescence intensity (a.u.)
ACGTGTCACCTTCTTATTCGCTGGGTTTTTTCTGGTGGGTCGGAGTCACCTAGTGCAG	8770 fluorescence intensity (a.u.)
CTCACTCCACGCACCATTTTCTTCTTCTTCTTCTTCGTCTCGGAGTCACCTAGTGCAG	11400 fluorescence intensity (a.u.)
CGTTGACTTTTCTAAACATGTTTGACCGTTCGTCTTATTCCGGAGTCACCTAGTGCAG	28400 fluorescence intensity (a.u.)
TTAACATAACCATGGCTCAACATTCAAGTTCTCTCTTCTCCGGAGTCACCTAGTGCAG	8660 fluorescence intensity (a.u.)
CCATTGGTTCCCTTTCCAATTTCACCTCGCCCAACCCTATCGGAGTCACCTAGTGCAG	8500 fluorescence intensity (a.u.)
TTTTTCCAACACTTGACTACCCATCTTACTTAAATTTTTTCGGAGTCACCTAGTGCAG	9960 fluorescence intensity (a.u.)
GATGTTCTCCCTATGAATTTGCTGCTCTGATCCCAGGTCTCGGAGTCACCTAGTGCAG	8220 fluorescence intensity (a.u.)
ATGCTCTGATATTTTCATGTGTTCTTTTTTTTTCTTCTTTCGGAGTCACCTAGTGCAG	9140 fluorescence intensity (a.u.)
TGACCATGAAATTTCACGATAGCACTACAGCAACGACGGCCGGAGTCACCTAGTGCAG	8420 fluorescence intensity (a.u.)
TAATCATGTTTGCTGAATAATTAATTGTTTGCCGTCTGCTCGGAGTCACCTAGTGCAG	9200 fluorescence intensity (a.u.)
ACCTTTTCTCTTTCTCTCTTCTATGTCCACTGCCGAGAGGCGGAGTCACCTAGTGCAG	11000 fluorescence intensity (a.u.)
TCCCCGCCTACACGACCAGTTCCTGGTTTCTGCTGCCTTCCGGAGTCACCTAGTGCAG	8220 fluorescence intensity (a.u.)
GCACATTACTCGCCTCCGCCGTTTTGGATTCTTCCCTGATCGGAGTCACCTAGTGCAG	9380 fluorescence intensity (a.u.)
CTCGGACGCTTTCTCGCCGCTGCTCACCTTCCGTTCCCTCCGGAGTCACCTAGTGCAG	8860 fluorescence intensity (a.u.)
ATAAAGTTATGGCCAATTTTGTGTTCTATATGCTATAATACGGAGTCACCTAGTGCAG	9740 fluorescence intensity (a.u.)
TCCTGGTTTGCGCCGAAAGACTGCAATTTTCTTGAGTTCTCGGAGTCACCTAGTGCAG	8150 fluorescence intensity (a.u.)
TTGTACTGTTGTGTCATCGCGGTCCCTAAACTCGCAAATTCGGAGTCACCTAGTGCAG	9820 fluorescence intensity (a.u.)
